PubChem BioAssay AID1224830 | NIAID – 2016
Here is a random part of about 18,000 reagents tested. About 2,900 of them (16%) were called active. 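Calls are made per well; low scores hint the gene aids the LPS response, high scores that it dampens it.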 Repeated entries: four replicate wells of each siRNA pool.

- Purpose: 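Genes whose knock-down alters the TNF-alpha reporter response to LPS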 (primary screen)
- System: human THP-1 monocytic leukaemia cells, TNF dual-luciferase reporter clone, PMA-differentiated to macrophage-like cells
- Reagent: siRNA pool against human genes, 50 nM
- Duration: LPS for 4 h, given about 3 days after siRNA transfection
- Treatment: bacterial LPS (TLR4 ligand), 10 ng/ml
- Read-out: 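TNF firefly reporter luminescence divided by renilla, normalised to the plate median, then turned into a robust z-score for each replicate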
- Direction: TNF reporter robust z-score: higher = stronger TNF reporter response to LPS
- Call rule: 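a well is active when its z-score exceeds 2.8 or falls below -1.5; control wells carry no call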

| gene | TNF reporter robust z-score | Outcome |
| --- | --- | --- |
| FOXD4 (forkhead box D4) | 0.01 | inactive |
| FOXD4 (forkhead box D4) | 1.41 | inactive |
| FOXD4 (forkhead box D4) | 0.43 | inactive |
| FOXD4 (forkhead box D4) | 1.73 | inactive |
| CABIN1 (calcineurin binding protein 1) | -1.15 | inactive |
| CABIN1 (calcineurin binding protein 1) | -0.3 | inactive |
| CABIN1 (calcineurin binding protein 1) | -0.15 | inactive |
| CABIN1 (calcineurin binding protein 1) | -0.53 | inactive |
| MAPK3 (mitogen-activated protein kinase 3) | -0.55 | inactive |
| MAPK3 (mitogen-activated protein kinase 3) | 0.49 | inactive |
| MAPK3 (mitogen-activated protein kinase 3) | -0.35 | inactive |
| MAPK3 (mitogen-activated protein kinase 3) | 0.52 | inactive |
| ARHGEF2 (Rho/Rac guanine nucleotide exchange factor 2) | -0.27 | inactive |
| ARHGEF2 (Rho/Rac guanine nucleotide exchange factor 2) | -0.68 | inactive |
| ARHGEF2 (Rho/Rac guanine nucleotide exchange factor 2) | -0.08 | inactive |
| ARHGEF2 (Rho/Rac guanine nucleotide exchange factor 2) | 0 | inactive |
| GARIN1A (golgi associated RAB2 interactor 1A) | -0.45 | inactive |
| GARIN1A (golgi associated RAB2 interactor 1A) | -0.35 | inactive |
| GARIN1A (golgi associated RAB2 interactor 1A) | 0.16 | inactive |
| GARIN1A (golgi associated RAB2 interactor 1A) | 0.21 | inactive |
| TMEM158 (transmembrane protein 158) | -0.95 | inactive |
| TMEM158 (transmembrane protein 158) | -1.68 | active |
| TMEM158 (transmembrane protein 158) | -1.56 | active |
| TMEM158 (transmembrane protein 158) | -1.34 | inactive |
| TRNAU1AP (tRNA selenocysteine 1 associated protein 1) | 0.45 | inactive |
| TRNAU1AP (tRNA selenocysteine 1 associated protein 1) | 0.8 | inactive |
| TRNAU1AP (tRNA selenocysteine 1 associated protein 1) | -1.59 | active |
| TRNAU1AP (tRNA selenocysteine 1 associated protein 1) | -0.34 | inactive |
| PCDH11X (protocadherin 11 X-linked) | 0.07 | inactive |
| PCDH11X (protocadherin 11 X-linked) | 1.03 | inactive |
| PCDH11X (protocadherin 11 X-linked) | 0.13 | inactive |
| PCDH11X (protocadherin 11 X-linked) | 0.79 | inactive |
| FAXDC2 (fatty acid hydroxylase domain containing 2) | -0.58 | inactive |
| FAXDC2 (fatty acid hydroxylase domain containing 2) | -0.28 | inactive |
| FAXDC2 (fatty acid hydroxylase domain containing 2) | -0.27 | inactive |
| FAXDC2 (fatty acid hydroxylase domain containing 2) | 0.09 | inactive |
| OR2M7 (olfactory receptor family 2 subfamily M member 7) | -0.5 | inactive |
| OR2M7 (olfactory receptor family 2 subfamily M member 7) | -0.46 | inactive |
| OR2M7 (olfactory receptor family 2 subfamily M member 7) | -0.92 | inactive |
| OR2M7 (olfactory receptor family 2 subfamily M member 7) | 0.2 | inactive |
| NEU4 (neuraminidase 4) | 0.2 | inactive |
| NEU4 (neuraminidase 4) | -0.14 | inactive |
| NEU4 (neuraminidase 4) | 0.69 | inactive |
| NEU4 (neuraminidase 4) | 1.33 | inactive |
| GLIPR1L2 (GLIPR1 like 2) | -0.75 | inactive |
| GLIPR1L2 (GLIPR1 like 2) | 1.32 | inactive |
| GLIPR1L2 (GLIPR1 like 2) | 0.47 | inactive |
| GLIPR1L2 (GLIPR1 like 2) | -0.08 | inactive |
